Measurements taken from PubChem BioAssay AID485314 (National Center for Advancing Translational Sciences (NCATS), 2010).
Among all 340,000 compounds or so, about 4,500 (1.3%) were called active. Inconclusive results, whose numbers are uncertain, are shown with a selection of clear calls. Calls follow the shape of the dose curve; as a rule, active = well fitted inhibition curve with a large enough effect; inconclusive = small, poorly fitted or top-dose-only effect, or another doubt; inactive = no such curve, though single readings can be large or run the other way. Where the call is inconclusive, the potency comes from a doubtful curve fit.

target: DNA polymerase beta (Homo sapiens) (UniProt P06746); assay: qHTS Assay for Inhibitors of DNA Polymerase Beta; conditions: Pol beta primer extension/strand displacement, fluorescence kinetic; activity change, negative = inhibition: at 114 µM (top of the series)
In short: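 Preincubation: enzyme (10 nM) with compound, 15 min, RT. Reaction: substrate added to 50 nM final. Reads: 0 and 10 min. Analysis: normalized, Hill fit.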
% is scaled to controls: 0 for no effect and ±100 for the full control effect; potency is read from the fitted curve at half-maximal effect.

Compound | activity change, negative = inhibition | Potency
CCOc1cc(S(=O)(=O)Nc2ccncc2)ccc1F | inactive: -0.223% | –
O=C(O)COc1ccccc1/C=N/NC(=O)CSc1nnc(SCc2ccc(Cl)cc2)s1 | inconclusive: -44.5% [inhibitor] | –
CC1C=CCC2C(=O)N(c3cccc(C(=O)NCc4ccccc4)c3)C(=O)C12 (centres undefined) | – | inconclusive: 89.1 µM [inhibitor, single point]
COc1cccc(C(=O)Nc2ccc(-c3cn4cccnc4n3)cc2)c1OC | – | inconclusive: 25.1 µM [inhibitor, full curve, poor fit]
Cc1ccc(C)n1-c1nnc(N2CCC(C(=O)N3CCN(C)CC3)CC2)s1 | – | inconclusive: 89.1 µM [inhibitor, single point]
CCOC(=O)Nc1ccc2c(COC(=O)CNS(=O)(=O)c3cccc(Br)c3)cc(=O)oc2c1 | – | inconclusive: 35.5 µM [inhibitor, full curve]
CCOC(=O)C(C)S(=O)(=O)c1ccc(C(F)(F)F)cn1 (centres undefined) | – | inconclusive: 100 µM [inhibitor, single point]
Cc1c(Cl)cccc1NC(=O)CSc1ncccc1C(=O)Oc1ccccc1Cl | inactive: 38.3% | –
CCn1c(SCC(=O)N2CCCCC2)nc2c1c(=O)n(C)c(=O)n2C | – | inconclusive: 89.1 µM [inhibitor, single point]
Cc1cccc(NC2=NC(=S)N(CC#N)C23CCCCC3)c1 | – | inconclusive: 89.1 µM [inhibitor, single point]
O=C1Nc2ccc3sc4ccccc4c3c2C1=O | – | active: 5.62 µM
Nc1nc(SCC(=O)Nc2ccc(C(F)(F)F)cc2)[nH]c(=O)c1NC(=O)c1ccc(F)c(F)c1 | inactive: -1.4% | –
COc1ccc(NC(=O)CSCc2cnn(-c3ccccc3)c2-n2cccc2)cc1 | inactive: -8.18% | –
CCn1ccc2cc(S(=O)(=O)N3CCC(C(=O)NCCc4ccc(C)cc4)CC3)ccc21 | inactive: 2.67% | –
CCC(C)NC(=O)c1ccc2nc(Cc3ccc(OC)cc3)oc2c1 (centres undefined) | – | inconclusive: 14.1 µM [inhibitor, partial curve]
CCCn1c(=O)c2sccc2n2c(CCCC(=O)NCc3ccco3)nnc12 | – | inconclusive: 63.1 µM [inhibitor, single point]
COc1ccc(/C=N\NC(=O)c2cc(O)c(O)c(O)c2)cc1CN1CCN(c2ccc(F)cc2)CC1 | – | inconclusive: 2.24 µM [inhibitor, full curve]
CC(C)c1ccc(C2N=C(N)Nc3nc4ccccc4n32)cc1 (centres undefined) | – | inconclusive: 10 µM [inhibitor, partial curve]
O=C(NCC(=O)N1CCN(c2ccccc2O)CC1)c1ccc2ccccc2c1 | – | inconclusive: 50.1 µM [inhibitor, single point]
O=C(NNC1OC(CO)C(O)C(O)C1O)c1cccc(Br)c1 (centres undefined) | – | inconclusive: 89.1 µM [inhibitor, single point]
CCc1ccc(CNC(=O)CN2C(=O)c3cccnc3Oc3ccc(C)cc32)cc1 | – | inconclusive: 89.1 µM [inhibitor, single point]
CCCCOc1ccc(CNC(=O)CCCN2C(=O)CSc3c2c(C)nn3-c2ccccc2)cc1 | inactive: 2.13% | –
O=C(O)C1CSC2c3ccccc3C(=O)N12 (centres undefined) | – | inconclusive: 1.78 µM [inhibitor, partial curve]

Compound | activity change, negative = inhibition | Potency
O=C(Nc1nc2ccc(F)cc2s1)c1nc(S(=O)(=O)Cc2ccccc2)ncc1Cl | inactive: 31.2% | –
CC1CCc2c(sc3nc(C(C)(C)C)nc(N4CCN(C(=O)CCl)CC4)c23)C1 (centres undefined) | – | inconclusive: 1.26 µM [inhibitor, full curve, poor fit]
O=C(COC(=O)Cn1cnc2ccccc21)Nc1ccc2c(c1)C(=O)c1ccccc1C2=O | – | inconclusive: 28.2 µM [inhibitor, full curve, poor fit]
Cc1cc(C)nc(NS(=O)(=O)c2ccc(-n3cccc3)cc2)n1 | – | active: 31.6 µM
CC1(NC(=O)NCCCCCCNC(=O)NC2(C)CCS(=O)(=O)C2)CCS(=O)(=O)C1 (centres undefined) | – | inconclusive: 0.794 µM [inhibitor, full curve, poor fit]
CC(C)CSc1oc(-c2ccco2)nc1S(=O)(=O)c1ccccc1 | – | inconclusive: 50.1 µM [inhibitor, partial curve]
COc1ccc(CNC(=O)c2cc3c(s2)-c2ccccc2OC3)cc1 | – | inconclusive: 39.8 µM [inhibitor, partial curve, poor fit]
COCCOC1CCN(C(=O)C2CCC(=O)N(CCc3ccccc3)C2)CC1 (centres undefined) | inactive: 0.725% | –
CCc1ccccc1NC(=O)CSc1nc(-c2ccccc2OC)nc2c1Cc1c(CO)cnc(C)c1O2 | – | inconclusive: 31.6 µM [inhibitor, full curve, poor fit]
Cc1cccn2c(=O)c3cc(C(=O)NCc4ccccc4)c(=N)n(CCOCCO)c3nc12 | – | inconclusive: 5.62 µM [inhibitor, single point]
CCN(C(=O)COC(=O)CNC(=O)c1ccc(C)s1)c1ccccc1 | – | inconclusive: 14.1 µM [inhibitor, full curve]
COC(=O)c1sc2cccc(F)c2c1S(=O)(=O)N1CCN(c2ccc(F)cc2)CC1 | inactive: 13.3% | –
O=C(N/N=C/c1ccc([N+](=O)[O-])o1)c1ccc2c(c1)OCO2 | – | active: 39.8 µM
CCOC(=O)c1[nH]c2ccc(C)cc2c1NC(=O)CN1CCCCC1 | inactive: -12.3% | –
CCCCN1C(=O)C2NN=C(C(=O)OC)C2C1=O (centres undefined) | – | inconclusive: 3.55 µM [inhibitor, single point]
CC(C)OCCCNC(=O)CN1C(=O)/C(=C/c2ccccc2F)Oc2ccccc21 | – | inconclusive: 89.1 µM [inhibitor, single point]
N#Cc1ccc(CSc2nc3c(c(=O)[nH]2)CCC3)cc1 | inactive: 0.544% | –
Cc1nn(C)c(C)c1-c1c(C#N)c(N)nc2c1CCCCCC2 | – | inconclusive: 22.4 µM [inhibitor, single point]
COc1ccc(S(=O)(=O)N2CCOC2CNC(=O)C(=O)NCc2cccnc2)cc1OC (centres undefined) | inconclusive: -33.9% [inhibitor] | –
CCC(=O)N1c2ccc(S(=O)(=O)N3CCC(C)CC3)cc2CC1C (centres undefined) | inactive: 4.69% | –
COc1ccc(NC(=O)CSc2oc(-c3ccco3)nc2S(=O)(=O)c2ccc(Br)cc2)c(OC)c1 | inactive: 7.9% | –
COc1ccc([C@H]2[C@H](C(=O)C(C)(C)C)N3N=Cc4ccccc4C3[C@]23N=C(c2ccccc2)OC3=O)cc1 (some centres undefined) | – | inconclusive: 0.631 µM [inhibitor, full curve]
CCOc1ccccc1N1CC(C(=O)Nc2cccc(S(=O)(=O)N3CCCCC3)c2)CC1=O (centres undefined) | – | inconclusive: 28.2 µM [inhibitor, full curve, poor fit]

Compound | activity change, negative = inhibition | Potency
Cc1ccc(C)c(-n2cc(CN3CCNC(=O)CC3)c(-c3ccccc3)n2)c1 | – | inconclusive: 89.1 µM [inhibitor, single point]
c1ccc(Cc2nnc3n2CCCCC3)cc1 | – | inconclusive: 1 µM [inhibitor, full curve, poor fit]
O=C(c1coc(=O)c(Br)c1)N1CCOCC1 | – | active: 6.31 µM
CN1CCN(c2nc3c(S(=O)(=O)c4ccc(Br)cc4)nnn3c3ccsc23)CC1 | inactive: -26.1% | –
Cc1c(C(=O)O)[nH]c2ccc([N+](=O)[O-])cc12 | – | inconclusive: 0.282 µM [inhibitor, full curve, poor fit]
CC1=C(C(=O)Nc2ccccc2)C(c2sccc2C)n2nnnc2N1 (centres undefined) | – | inconclusive: 89.1 µM [inhibitor, single point]
C/C(=N\N=C(N)N)c1ccc(Cl)cc1 | – | inconclusive: 89.1 µM [inhibitor, single point]
CN1CCN(c2nc(-c3ccccc3)nc(-c3ccccc3)c2C#N)CC1 | – | inconclusive: 100 µM [inhibitor, single point]
CCN1CCN(C(c2ccc(F)cc2)c2c(O)cc(C)n(CCOC)c2=O)CC1 (centres undefined) | inactive: 9.34% | –
COc1cc(C(=O)OCC(=O)Nc2sccc2C(N)=O)cc(OC)c1OC | – | inconclusive: 100 µM [inhibitor, single point]
CN(C)S(=O)(=O)c1cc(NC(=O)CN2CCNC(=O)C2)ccc1Cl | – | inconclusive: 39.8 µM [inhibitor, single point]
Cc1nnc(OC(C)C)c2nn(-c3ccccc3F)c(C)c12 | inactive: -10.1% | –
COc1cc(C2CC(=O)N(c3ccccc3)C3=C2C(=O)OC3)cc(OC)c1OC (centres undefined) | inactive: 6.37% | –
CCN(CC)S(=O)(=O)c1ccc(OC)c(NC(=O)COc2ccc3c(C)cc(=O)oc3c2)c1 | – | inconclusive: 22.4 µM [inhibitor, full curve, poor fit]
CCn1c(O)c(/C=N/NC(=O)c2ccncc2)c(=O)n(CC)c1=S | inactive: -21.6% | –
CCOc1ccc(NC(=O)CSc2cn(CC(=O)N3CCCCCC3)c3ccccc23)cc1 | inactive: -0.0938% | –
C=C1CCN([C@@H](C)C(=O)OCc2ccc(C)cc2)S(=O)(=O)c2ccccc21 | inactive: -13.3% | –
C[n+]1c(/C=C/c2ccc(O)cc2)ccc2ccccc21 | – | active: 15.8 µM
CSc1cccc(NC(=O)N2CCN(c3cc(-c4noc(C)n4)ccc3C)CC2)c1 | inactive: -0.455% | –
CCN(CC)C(=O)CSc1nc(COc2ccccc2)nc2ccccc12 | – | inconclusive: 0.708 µM [inhibitor, full curve, poor fit]
O=C(CCCCCn1c(=S)[nH]c2ccccc2c1=O)NCc1ccc2c(c1)OCO2 | – | inconclusive: 39.8 µM [inhibitor, single point]
Cn1c(CNc2cccc(Cl)c2)nnc1SCC(=O)OC1CCCCC1 | – | inconclusive: 5.62 µM [inhibitor, full curve]
CCOC(=O)c1cc(CC)sc1NC(=O)C1CC1 | – | inconclusive: 0.447 µM [inhibitor, full curve]

Record cards, as listed above.
`c1ccc(Cc2nnc3n2CCCCC3)cc1` in the list: Potency: inconclusive: 1 µM [inhibitor, full curve, poor fit]
`O=C(c1coc(=O)c(Br)c1)N1CCOCC1` in the list: Potency: active: 6.31 µM
`CCOc1ccc(NC(=O)CSc2cn(CC(=O)N3CCCCCC3)c3ccccc23)cc1` in the list: activity change, negative = inhibition: inactive: -0.0938%
`Cc1ccc(C)c(-n2cc(CN3CCNC(=O)CC3)c(-c3ccccc3)n2)c1` in the list: Potency: inconclusive: 89.1 µM [inhibitor, single point]
